Data reported in PubChem BioAssay AID488837 (National Center for Advancing Translational Sciences (NCATS), 2010).
In all, about 330,000 compounds went through this assay and about 20 (0.006%) were called active. Inconclusive means that the source gave no clear call. Such entries were picked first, then a sample of the others. The call rests on the fitted dose curve; in most records, active means well fitted inhibition curve with a large enough effect; inconclusive means small, poorly fitted or top-dose-only effect, or effect the other way; inactive means flat fitted curve, though single readings scatter. Potencies beside an inconclusive call are fits to weak or partial responses and may not hold up.

By UniProt entry, the sequences of proteins in these tests, tags left out. Where a name states a change or a piece, a line headed by the entry shows the natural chain unless it says otherwise.
UniProt O00167: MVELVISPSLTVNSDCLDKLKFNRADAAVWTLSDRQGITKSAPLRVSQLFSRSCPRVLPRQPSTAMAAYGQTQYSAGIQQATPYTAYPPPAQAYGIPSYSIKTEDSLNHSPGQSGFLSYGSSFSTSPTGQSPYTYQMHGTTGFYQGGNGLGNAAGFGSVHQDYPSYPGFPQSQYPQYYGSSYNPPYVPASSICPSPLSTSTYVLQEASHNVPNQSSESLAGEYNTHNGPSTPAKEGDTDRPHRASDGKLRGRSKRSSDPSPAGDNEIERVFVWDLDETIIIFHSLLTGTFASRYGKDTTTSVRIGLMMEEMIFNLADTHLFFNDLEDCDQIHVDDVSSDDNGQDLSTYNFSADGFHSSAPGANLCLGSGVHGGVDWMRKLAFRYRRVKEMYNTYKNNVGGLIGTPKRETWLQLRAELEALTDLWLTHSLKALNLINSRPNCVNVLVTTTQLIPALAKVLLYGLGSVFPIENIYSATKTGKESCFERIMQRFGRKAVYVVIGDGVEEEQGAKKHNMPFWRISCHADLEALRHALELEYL

The compounds below were run against Protein phosphatase EYA2 (Homo sapiens) (UniProt O00167) (assay: qHTS Assay for Inhibitors of the Phosphatase Activity of Eya2). Settings: recombinant Eya2, OMFP fluorescence dephosphorylation (OMFP is methylfluorescein phosphate); activity, negative = inhibition: at 76.9 µM (top of the series) unless noted.
Procedure, shortened: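 Eya2 protein (added as 0.2 uM solution) was preincubated with compound for 10 min at ambient temperature in 50 mM HEPES pH 7.5, 50 mM NaCl, 5 uM MgCl2, 0.05% BSA, 1 mM DTT. OMFP (added at 50 uM) then reacted 10 min; fluorescence read at 485/525 nm.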
On the % scale 0 is the no-effect control and ±100 the full control effect; potency means the concentration at half of the fitted maximal effect.

How did the Potency turn out when `Cc1oc2c(O)c(O)ccc2c(=O)c1-c1cnn(-c2ccccc2)c1` was run?
Its Potency is “inactive”.

`CC(=O)Nc1ccc(NC(=O)CCn2c(=S)oc3ccccc32)cc1` was tested. Which Potency did it give?
Its Potency is “inactive”.

For `CCN(CC)S(=O)(=O)c1ccc(-c2cn3cc(Cl)ccc3n2)cc1`, which Potency is on record?
Its Potency is inconclusive: 126 µM [inhibitor, partial curve].

How did the Potency turn out when `COc1ccccc1/C=C/C(=O)Nc1ccc2c(c1)OCCO2` was run?
Its Potency is “inactive”.

`COc1ccccc1NS(=O)(=O)c1ccc(C(N)=O)cc1` was tested. Which Potency did it give?
Its Potency is inconclusive: 158 µM [inhibitor, single point].

For `CC(C)OC(=O)c1cccc2c1C(=O)c1ccccc1-2`, which Potency is on record?
The Potency was inconclusive: 100 µM [inhibitor, single point].

With `Cc1ccc(/C=C2/NC(=O)N(Cc3ccccc3)C2=O)o1` as the compound, how does the Potency read?
Its Potency is “inactive”.

With `COc1cc(/C=N/NC(=O)/C(=C\c2ccc([N+](=O)[O-])cc2)NC(=O)c2ccccc2)cc(OC)c1O` as the compound, how does the Potency read?
The Potency was inconclusive: 14.1 µM [inhibitor, single point].

For `CCCCN(CC)c1nc(-c2ccncc2)nc2ccccc12`, which Potency is on record?
The Potency was “inactive”.

With `CC#CC[N+](C)(C)CCCCCCCC` as the compound, how does the Potency read?
Its Potency is inconclusive: 178 µM [inhibitor, partial curve, poor fit].

How did the Potency turn out when `O=C(CSc1nnc(CNC(=O)c2ccco2)o1)Nc1ccc(Cl)cc1` was run?
Its Potency is “inactive”.

For `O=C(CN1CCN(c2ccccn2)CC1)Nc1ccc(F)cc1`, which activity, negative = inhibition is on record?
The activity, negative = inhibition was inconclusive: 45.4% [activator].

`COc1ccc(NS(=O)(=O)c2cc([N+](=O)[O-])ccc2NN=Cc2ccccc2OCC(=O)O)cc1` was tested. Which Potency did it give?
The Potency was inconclusive: 20 µM [inhibitor, partial curve].

For `O=C(c1cc(COc2ccc(F)cc2F)on1)N1CC2C[C@@H]3CC1C[C@H](C2)C3`, which Potency is on record?
The Potency was inconclusive: 100 µM [inhibitor, single point].

Which Potency does the source give for `COc1ccc([N+](=O)[O-])c(S(=O)(=O)c2ccc(Cl)cc2)n1` here?
The Potency was “inactive”.

With `COc1ccc(NC(=O)NC(=O)c2cc(OCC(F)(F)F)ccc2OCC(F)(F)F)cc1` as the compound, how does the Potency read?
The Potency was inconclusive: 112 µM [inhibitor, partial curve].

Which Potency does the source give for `CC1=NN(c2ccccc2)C(=O)C1N=Nc1ccccc1` (stereo not given) here?
Its Potency is “inactive”.

`CC(=O)Nc1ccc(C(=O)OCC(=O)Nc2c(F)cccc2F)cc1` was tested. Which Potency did it give?
The Potency was inconclusive: 31.6 µM [inhibitor, partial curve].

How did the Potency turn out when `Cc1ccc2[nH]c3c(N4CCc5ccccc5C4)ncnc3c2c1` was run?
Its Potency is “inactive”.

`CC(Sc1nnc(Nc2ccccc2)s1)C(=O)Nc1nc(-c2ccccc2)cs1` (stereo not given) was tested. Which Potency did it give?
Its Potency is “inactive”.

Which Potency does the source give for `COc1ccc(N2C(=O)CC(Sc3nc(C)cc(C)c3C#N)C2=O)cc1` (stereo not given) here?
Its Potency is “inactive”.

How did the Potency turn out when `O=S(=O)(c1cc(Cl)sc1Cl)N1CCCC1` was run?
Its Potency is inconclusive: 100 µM [inhibitor, single point].

With `CCN(CC)S(=O)(=O)c1ccc(N2CCOCC2)c(NC(=O)COc2ccccc2C)c1` as the compound, how does the Potency read?
The Potency was inconclusive: 22.4 µM [inhibitor, partial curve].

`CCOc1ccc2c(c1)c1nc3ccccc3nc1n2C` was tested. Which Potency did it give?
The Potency was inconclusive: 70.8 µM [inhibitor, single point].

`Cc1ccc2cc(C#N)c(NCCNC(=S)NCCCN(C)C)nc2c1C` was tested. Which Potency did it give?
Its Potency is “inactive”.

With `O=c1c(-c2ccc(Cl)cc2)[n+]([O-])c2ccccc2n1OCc1nc2ccccc2[nH]1` as the compound, how does the Potency read?
Its Potency is inconclusive: 100 µM [inhibitor, single point].

With `Cc1nc(NCCC(C)C)c2nnn(Cc3ccccc3)c2n1` as the compound, how does the Potency read?
The Potency was inconclusive: 25.1 µM [inhibitor, single point].

`CC(C)c1cc(C(=O)N2CCCC(N3CCN(c4ccc(F)cc4)CC3)C2)n(C)n1` (stereo not given) was tested. Which Potency did it give?
Its Potency is inconclusive: 112 µM [inhibitor, single point].

How did the Potency turn out when `N#CC1=C(N)Nc2ncnn2C1c1ccc([N+](=O)[O-])cc1` (stereo not given) was run?
Its Potency is inconclusive: 39.8 µM [inhibitor, partial curve, poor fit].

Which Potency does the source give for `O=C(CSc1nc2ncccc2[nH]1)NC1CCCC1` here?
The Potency was inconclusive: 25.1 µM [inhibitor, single point].

How did the Potency turn out when `O=C(Cc1ccc([N+](=O)[O-])cc1)c1c(O)cc(O)cc1O` was run?
The Potency was inconclusive: 25.1 µM [inhibitor, single point].

With `CCOC(=O)/C=C1\CN(Cc2cc(OC)c(OC)c(OC)c2)S(=O)(=O)c2ccccc21` as the compound, how does the Potency read?
The Potency was “inactive”.

How did the Potency turn out when `N#C/C(=C/c1ccc(O)cc1)C(=O)NCc1ccc(Cl)cc1` was run?
Its Potency is inconclusive: 20 µM [inhibitor, single point].

With `CC(=O)Oc1cccc(C(=O)Nc2ccccc2NC(=O)c2cccc(OC(C)=O)c2)c1` as the compound, how does the activity, negative = inhibition read?
Its activity, negative = inhibition is inconclusive: 33.9% [activator].

With `CC1(C)Cc2c(C#N)c(N3CCCC3)nc(-c3ccco3)c2CO1` as the compound, how does the Potency read?
Its Potency is “inactive”.

Which Potency does the source give for `COc1cc(N2CCCC2)c(OC)cc1/C=C1/NC(=S)NC1=O` here?
Its Potency is inconclusive: 25.1 µM [activator, partial curve].

Which Potency does the source give for `C=CCSc1nnc(-c2cc3c(C(F)(F)F)nn(C)c3s2)n1C` here?
The Potency was inconclusive: 158 µM [inhibitor, partial curve].

For `COc1ccccc1C(=O)Nc1ccc2nc3n(c(=O)c2c1)CCCC3`, which Potency is on record?
The Potency was “inactive”.

With `COc1ccc(CN2CCNC(=O)C2CC(=O)NCCc2nc(C)c(C)s2)c(OC)c1` (stereo not given) as the compound, how does the Potency read?
The Potency was “inactive”.

How did the Potency turn out when `O=C(COC(=O)C1CCN(c2ccc(C(F)(F)F)cn2)CC1)NCc1cccc(Cl)c1` was run?
The Potency was inconclusive: 44.7 µM [inhibitor, partial curve].

For `CCOc1cc(C(=S)N2CCCCC2)ccc1OS(=O)(=O)c1ccc(Br)cc1`, which Potency is on record?
The Potency was inconclusive: 22.4 µM [inhibitor, single point].

For `COc1cccc(C(=O)COc2cccc(NC(=O)c3cccc([N+](=O)[O-])c3)c2)c1`, which Potency is on record?
Its Potency is inconclusive: 20 µM [inhibitor, single point].

With `Cc1ccc(-c2cc(C(=O)N3CCCC3)c3ccccc3n2)s1` as the compound, how does the Potency read?
The Potency was “inactive”.

For `CCNc1ccc2noc3c2c1C(=O)c1ccccc1-3`, which Potency is on record?
The Potency was inconclusive: 31.6 µM [activator, partial curve].

`CC(C)[C@H](NC(=O)N1CCn2c1nc1ccccc12)C(=O)NCC1CCCO1` (stereo not given in full) was tested. Which Potency did it give?
Its Potency is inconclusive: 22.4 µM [inhibitor, single point].

For `CCCCNC(=S)N1CCN(C(c2ccccc2)c2ccccc2)CC1`, which Potency is on record?
The Potency was inconclusive: 100 µM [inhibitor, single point].

For `COc1ccccc1NC(=O)CSc1nn2c(=O)c(C)nnc2s1`, which Potency is on record?
The Potency was “inactive”.

With `O=C(c1ccc(F)cc1)N1CCN(Cc2ccccc2)CC1` as the compound, how does the Potency read?
Its Potency is inconclusive: 20 µM [inhibitor, single point].

Which Potency does the source give for `COc1ccc(OC)c(NC(=O)CCC(=O)Oc2ccc(C)cc2)c1` here?
Its Potency is inconclusive: 20 µM [inhibitor, single point].

Which Potency does the source give for `O=C(OCc1nnc(-c2ccccc2)o1)c1ccc([N+](=O)[O-])s1` here?
The Potency was inconclusive: 89.1 µM [inhibitor, single point].

For `CCOC(=O)c1c(NC(=S)NC)sc2c1CC(C)(C)SC2`, which Potency is on record?
The Potency was “inactive”.

`Cc1ccccc1Nc1nc(N)nc(CSc2nncn2C)n1` was tested. Which Potency did it give?
Its Potency is inconclusive: 100 µM [inhibitor, partial curve, poor fit].

Which Potency does the source give for `O=C(c1ccco1)N1CCN(S(=O)(=O)c2ccc(Br)s2)CC1` here?
Its Potency is “inactive”.

With `Cc1cc(C)nc(Nc2nc3ccccc3o2)n1` as the compound, how does the Potency read?
Its Potency is “inactive”.

How did the Potency turn out when `Cc1ccc(-c2nnn(C(C)C(=O)N3c4ccccc4CCc4ccccc43)n2)cc1` (stereo not given) was run?
Its Potency is “inactive”.

For `COC(=O)CC/C(=N/Nc1ccc(Cl)c(Cl)c1)C(=O)OC`, which Potency is on record?
Its Potency is inconclusive: 89.1 µM [inhibitor, single point].

`O=C(Nc1c2c(nn1-c1ccc(F)cc1)CS(=O)C2)c1ccc2c(c1)OCO2` (stereo not given) was tested. Which Potency did it give?
The Potency was inconclusive: 25.1 µM [inhibitor, partial curve, poor fit].

Which Potency does the source give for `COc1ccc2c(c1)CC/C(=C/c1ccco1)C2=O` here?
Its Potency is “inactive”.

With `Nc1c(S(=O)(=O)c2cccs2)c2nc3ccccc3nc2n1/N=C/c1cccc(O)c1` as the compound, how does the Potency read?
The Potency was “inactive”.

With `C/C(=N\NC(N)=O)c1ccccc1Cl` as the compound, how does the Potency read?
The Potency was inconclusive: 89.1 µM [inhibitor, single point].

`CN(C)C(=O)CCc1ccc2c3c([nH]c2c1)[C@]1(CCC2CCCC2)[C@@H](C(=O)N2CCOCC2)C[C@H](CC(=O)NCCCn2ccnc2)C(=O)N1CC3` was tested. Which Potency did it give?
The Potency was “inactive”.

How did the Potency turn out when `Cc1nnc(SCC(=O)Nc2nccs2)s1` was run?
Its Potency is “inactive”.

How did the Potency turn out when `Cc1cc(C)n2cc(CSCC(=O)O)nc2n1` was run?
The Potency was “inactive”.

Which Potency does the source give for `COc1cc2ncnc(NCCCN3CCOCC3)c2cc1OC` here?
The Potency was “inactive”.

With `O=C(Oc1coc(CSc2ncccn2)cc1=O)c1cccc([N+](=O)[O-])c1` as the compound, how does the Potency read?
The Potency was “inactive”.

Which Potency does the source give for `COc1ccc(OC)c(CCNC(=O)CS(=O)(=O)Cc2nc(-c3ccccc3Cl)oc2C)c1` here?
The Potency was inconclusive: 79.4 µM [inhibitor, single point].

For `CC(c1ccccc1)n1c(N2CCN(C)CC2)nc2c1c(=O)[nH]c(=O)n2C` (stereo not given), which Potency is on record?
Its Potency is inconclusive: 20 µM [inhibitor, single point].

Which Potency does the source give for `Cc1ccc(C)c(NNC(=O)C(=O)NNc2cc(C)ccc2C)c1` here?
Its Potency is inconclusive: 100 µM [inhibitor, single point].

Which Potency does the source give for `Cc1cc2c(sc3ccccc32)c(C)n1` here?
The Potency was inconclusive: 708 µM [inhibitor, single point].

Which Potency does the source give for `COc1cc(C(=S)N2CCN(C(c3ccccc3)c3ccccc3)CC2)cc(OC)c1O` here?
The Potency was “inactive”.

`CCC(c1ccccc1)c1nnc(NC(=O)c2ccco2)s1` (stereo not given) was tested. Which Potency did it give?
The Potency was inconclusive: 126 µM [inhibitor, single point].

How did the Potency turn out when `COc1ccc(Cl)cc1NC(=S)NCCSc1ccc(C)cc1` was run?
The Potency was “inactive”.

For `COC(=O)c1ccc(CNCC(O)COc2ccc(-c3ccccc3)cc2)cc1` (stereo not given), which Potency is on record?
Its Potency is “inactive”.

`Cc1[nH]c2ccccc2c1/C=N/NC(=O)CNC(=O)c1cccs1` was tested. Which Potency did it give?
The Potency was inconclusive: 708 µM [inhibitor, single point].

`CCOC(=O)c1c(/N=C/c2ccc(OC)cc2O)sc2c1CCN(C)C2` was tested. Which Potency did it give?
Its Potency is inconclusive: 89.1 µM [inhibitor, single point].
